In the supplement of paper PMC10849652:
This is one part of the list.

Sequences of proteins named here, by UniProt entry; tags and fusion partners are left off. A change or cut given only in a name is not applied to a line headed by its entry.
UniProt Q99497, whole entry, looked up: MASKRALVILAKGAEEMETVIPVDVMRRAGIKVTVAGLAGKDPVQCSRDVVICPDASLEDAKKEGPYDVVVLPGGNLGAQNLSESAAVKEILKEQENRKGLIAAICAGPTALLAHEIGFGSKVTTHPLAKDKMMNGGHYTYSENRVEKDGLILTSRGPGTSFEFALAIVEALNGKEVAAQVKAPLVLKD
UniProt Q96GD0: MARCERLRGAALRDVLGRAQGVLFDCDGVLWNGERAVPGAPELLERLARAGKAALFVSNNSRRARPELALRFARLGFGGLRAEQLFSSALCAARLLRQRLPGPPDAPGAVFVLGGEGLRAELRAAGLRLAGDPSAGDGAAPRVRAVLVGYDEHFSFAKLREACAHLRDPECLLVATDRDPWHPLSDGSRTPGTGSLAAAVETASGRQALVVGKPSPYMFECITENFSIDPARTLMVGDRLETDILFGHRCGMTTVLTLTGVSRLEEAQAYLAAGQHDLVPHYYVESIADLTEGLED
UniProt Q9NVE7: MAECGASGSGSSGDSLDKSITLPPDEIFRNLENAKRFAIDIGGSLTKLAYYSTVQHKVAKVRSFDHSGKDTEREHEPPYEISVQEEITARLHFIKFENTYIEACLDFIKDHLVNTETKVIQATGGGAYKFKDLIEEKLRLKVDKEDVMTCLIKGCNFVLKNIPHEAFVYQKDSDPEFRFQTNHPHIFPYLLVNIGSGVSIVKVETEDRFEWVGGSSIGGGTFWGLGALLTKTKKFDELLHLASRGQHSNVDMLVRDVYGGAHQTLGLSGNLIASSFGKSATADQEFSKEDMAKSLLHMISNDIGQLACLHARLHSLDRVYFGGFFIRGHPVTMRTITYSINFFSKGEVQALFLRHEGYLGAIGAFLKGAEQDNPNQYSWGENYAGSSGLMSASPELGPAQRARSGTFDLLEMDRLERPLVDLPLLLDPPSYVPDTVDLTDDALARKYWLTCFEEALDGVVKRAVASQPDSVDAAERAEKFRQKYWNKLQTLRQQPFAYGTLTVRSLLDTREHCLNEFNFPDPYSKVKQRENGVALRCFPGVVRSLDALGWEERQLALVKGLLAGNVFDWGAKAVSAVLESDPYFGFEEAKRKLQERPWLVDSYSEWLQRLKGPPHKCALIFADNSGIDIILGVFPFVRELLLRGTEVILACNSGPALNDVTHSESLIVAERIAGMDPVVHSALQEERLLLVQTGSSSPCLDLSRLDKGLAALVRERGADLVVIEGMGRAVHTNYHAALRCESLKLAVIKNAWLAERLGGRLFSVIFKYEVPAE
UniProt P30086: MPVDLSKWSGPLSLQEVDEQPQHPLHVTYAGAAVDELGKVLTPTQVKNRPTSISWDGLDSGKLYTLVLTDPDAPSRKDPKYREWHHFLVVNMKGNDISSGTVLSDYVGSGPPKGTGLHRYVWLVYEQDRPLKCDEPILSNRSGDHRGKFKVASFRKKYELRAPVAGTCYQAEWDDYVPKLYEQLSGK
UniProt Q96AQ6: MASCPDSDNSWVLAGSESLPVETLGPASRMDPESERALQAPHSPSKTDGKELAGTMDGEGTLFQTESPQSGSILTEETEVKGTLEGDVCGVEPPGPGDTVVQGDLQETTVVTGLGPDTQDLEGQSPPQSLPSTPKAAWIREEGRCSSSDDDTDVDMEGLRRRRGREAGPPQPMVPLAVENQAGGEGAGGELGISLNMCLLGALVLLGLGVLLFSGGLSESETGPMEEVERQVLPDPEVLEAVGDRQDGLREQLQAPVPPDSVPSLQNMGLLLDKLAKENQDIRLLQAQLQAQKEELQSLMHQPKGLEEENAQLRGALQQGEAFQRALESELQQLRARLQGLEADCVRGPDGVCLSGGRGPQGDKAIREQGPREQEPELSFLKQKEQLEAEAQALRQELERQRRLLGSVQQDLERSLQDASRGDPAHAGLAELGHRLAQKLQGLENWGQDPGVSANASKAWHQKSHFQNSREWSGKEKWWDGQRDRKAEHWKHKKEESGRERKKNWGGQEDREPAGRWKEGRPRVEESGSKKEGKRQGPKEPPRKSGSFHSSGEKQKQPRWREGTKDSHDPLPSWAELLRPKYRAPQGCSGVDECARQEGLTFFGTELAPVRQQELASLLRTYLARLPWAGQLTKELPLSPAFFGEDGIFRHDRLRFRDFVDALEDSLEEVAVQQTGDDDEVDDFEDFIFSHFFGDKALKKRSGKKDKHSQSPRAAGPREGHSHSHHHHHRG
UniProt P12955: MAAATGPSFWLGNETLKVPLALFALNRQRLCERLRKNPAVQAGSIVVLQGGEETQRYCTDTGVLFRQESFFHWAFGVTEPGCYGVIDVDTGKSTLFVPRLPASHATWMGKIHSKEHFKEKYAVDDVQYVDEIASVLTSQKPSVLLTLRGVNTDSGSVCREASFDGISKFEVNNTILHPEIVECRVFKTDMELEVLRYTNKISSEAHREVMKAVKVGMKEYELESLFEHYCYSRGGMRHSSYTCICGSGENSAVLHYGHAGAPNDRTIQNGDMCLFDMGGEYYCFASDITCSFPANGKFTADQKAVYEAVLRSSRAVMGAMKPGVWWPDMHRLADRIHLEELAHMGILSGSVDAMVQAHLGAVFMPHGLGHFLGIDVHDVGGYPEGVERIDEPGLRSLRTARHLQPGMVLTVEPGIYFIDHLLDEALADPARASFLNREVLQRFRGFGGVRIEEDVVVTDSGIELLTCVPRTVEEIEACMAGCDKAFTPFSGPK
UniProt O43252: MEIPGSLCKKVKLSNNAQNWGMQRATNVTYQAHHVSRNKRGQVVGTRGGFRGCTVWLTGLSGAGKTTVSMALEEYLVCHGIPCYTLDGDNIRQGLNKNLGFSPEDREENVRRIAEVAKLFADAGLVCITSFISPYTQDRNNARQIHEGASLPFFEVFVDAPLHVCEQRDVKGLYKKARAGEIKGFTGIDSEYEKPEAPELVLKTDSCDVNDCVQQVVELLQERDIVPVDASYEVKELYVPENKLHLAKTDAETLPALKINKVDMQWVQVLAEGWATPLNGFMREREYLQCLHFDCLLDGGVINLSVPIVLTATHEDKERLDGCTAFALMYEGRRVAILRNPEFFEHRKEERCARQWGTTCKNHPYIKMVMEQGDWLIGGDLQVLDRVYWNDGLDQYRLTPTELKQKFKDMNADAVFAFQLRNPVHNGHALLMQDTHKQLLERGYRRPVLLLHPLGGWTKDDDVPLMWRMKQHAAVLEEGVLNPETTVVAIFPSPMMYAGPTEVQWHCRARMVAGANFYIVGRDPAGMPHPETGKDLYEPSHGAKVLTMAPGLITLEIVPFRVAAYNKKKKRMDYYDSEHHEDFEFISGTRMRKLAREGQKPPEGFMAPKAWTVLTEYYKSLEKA
UniProt H7BZJ3: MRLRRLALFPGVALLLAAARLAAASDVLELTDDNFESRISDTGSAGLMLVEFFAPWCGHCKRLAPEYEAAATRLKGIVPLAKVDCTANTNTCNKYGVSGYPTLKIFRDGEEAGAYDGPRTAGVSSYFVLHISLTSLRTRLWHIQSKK
UniProt Q96RD7, whole entry, looked up: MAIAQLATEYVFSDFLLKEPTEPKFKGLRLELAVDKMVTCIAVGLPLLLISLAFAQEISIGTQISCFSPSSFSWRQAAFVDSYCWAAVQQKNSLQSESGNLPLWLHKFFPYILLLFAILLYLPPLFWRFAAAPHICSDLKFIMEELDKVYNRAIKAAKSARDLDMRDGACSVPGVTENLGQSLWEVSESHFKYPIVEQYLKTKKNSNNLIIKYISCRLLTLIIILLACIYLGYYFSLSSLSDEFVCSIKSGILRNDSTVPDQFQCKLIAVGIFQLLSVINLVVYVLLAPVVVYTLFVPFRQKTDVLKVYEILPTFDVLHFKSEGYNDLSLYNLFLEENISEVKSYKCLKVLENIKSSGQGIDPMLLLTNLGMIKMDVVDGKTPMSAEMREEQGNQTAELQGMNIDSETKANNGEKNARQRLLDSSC
UniProt Q9H074: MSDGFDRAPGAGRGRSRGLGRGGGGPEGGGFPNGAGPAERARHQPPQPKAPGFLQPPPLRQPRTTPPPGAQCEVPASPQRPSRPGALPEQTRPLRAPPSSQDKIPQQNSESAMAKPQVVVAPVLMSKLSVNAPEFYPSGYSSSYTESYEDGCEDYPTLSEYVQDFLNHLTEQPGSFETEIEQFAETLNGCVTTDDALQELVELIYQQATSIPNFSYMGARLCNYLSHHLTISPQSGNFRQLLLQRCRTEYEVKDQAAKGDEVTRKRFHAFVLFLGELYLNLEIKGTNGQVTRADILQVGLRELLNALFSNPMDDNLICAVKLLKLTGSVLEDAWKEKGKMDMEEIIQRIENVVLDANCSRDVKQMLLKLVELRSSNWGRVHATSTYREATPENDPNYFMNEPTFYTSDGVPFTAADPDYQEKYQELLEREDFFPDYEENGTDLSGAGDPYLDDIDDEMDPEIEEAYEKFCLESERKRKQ
UniProt O75381, whole entry, looked up: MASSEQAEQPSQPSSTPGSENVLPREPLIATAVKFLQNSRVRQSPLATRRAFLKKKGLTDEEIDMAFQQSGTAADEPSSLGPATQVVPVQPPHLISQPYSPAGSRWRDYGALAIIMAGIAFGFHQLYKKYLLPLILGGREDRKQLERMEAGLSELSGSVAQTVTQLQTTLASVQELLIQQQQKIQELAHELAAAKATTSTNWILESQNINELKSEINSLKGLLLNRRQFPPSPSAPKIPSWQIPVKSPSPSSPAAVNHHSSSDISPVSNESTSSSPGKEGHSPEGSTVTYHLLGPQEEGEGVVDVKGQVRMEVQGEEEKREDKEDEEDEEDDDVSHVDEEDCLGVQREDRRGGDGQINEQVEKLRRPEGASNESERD
UniProt P50479: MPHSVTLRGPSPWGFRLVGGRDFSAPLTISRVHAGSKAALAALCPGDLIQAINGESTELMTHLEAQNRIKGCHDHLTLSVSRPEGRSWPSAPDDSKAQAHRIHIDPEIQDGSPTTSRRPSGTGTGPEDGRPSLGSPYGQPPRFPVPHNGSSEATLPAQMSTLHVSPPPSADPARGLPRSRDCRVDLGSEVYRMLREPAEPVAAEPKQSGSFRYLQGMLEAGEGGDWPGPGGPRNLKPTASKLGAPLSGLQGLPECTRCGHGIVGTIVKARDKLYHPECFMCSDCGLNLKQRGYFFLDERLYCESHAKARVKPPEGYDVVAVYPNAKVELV
UniProt Q13442: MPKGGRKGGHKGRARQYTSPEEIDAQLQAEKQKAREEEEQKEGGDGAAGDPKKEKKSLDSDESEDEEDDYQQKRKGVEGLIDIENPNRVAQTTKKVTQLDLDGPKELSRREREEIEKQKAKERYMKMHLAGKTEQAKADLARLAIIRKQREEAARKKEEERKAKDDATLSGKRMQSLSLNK
UniProt Q96RG2: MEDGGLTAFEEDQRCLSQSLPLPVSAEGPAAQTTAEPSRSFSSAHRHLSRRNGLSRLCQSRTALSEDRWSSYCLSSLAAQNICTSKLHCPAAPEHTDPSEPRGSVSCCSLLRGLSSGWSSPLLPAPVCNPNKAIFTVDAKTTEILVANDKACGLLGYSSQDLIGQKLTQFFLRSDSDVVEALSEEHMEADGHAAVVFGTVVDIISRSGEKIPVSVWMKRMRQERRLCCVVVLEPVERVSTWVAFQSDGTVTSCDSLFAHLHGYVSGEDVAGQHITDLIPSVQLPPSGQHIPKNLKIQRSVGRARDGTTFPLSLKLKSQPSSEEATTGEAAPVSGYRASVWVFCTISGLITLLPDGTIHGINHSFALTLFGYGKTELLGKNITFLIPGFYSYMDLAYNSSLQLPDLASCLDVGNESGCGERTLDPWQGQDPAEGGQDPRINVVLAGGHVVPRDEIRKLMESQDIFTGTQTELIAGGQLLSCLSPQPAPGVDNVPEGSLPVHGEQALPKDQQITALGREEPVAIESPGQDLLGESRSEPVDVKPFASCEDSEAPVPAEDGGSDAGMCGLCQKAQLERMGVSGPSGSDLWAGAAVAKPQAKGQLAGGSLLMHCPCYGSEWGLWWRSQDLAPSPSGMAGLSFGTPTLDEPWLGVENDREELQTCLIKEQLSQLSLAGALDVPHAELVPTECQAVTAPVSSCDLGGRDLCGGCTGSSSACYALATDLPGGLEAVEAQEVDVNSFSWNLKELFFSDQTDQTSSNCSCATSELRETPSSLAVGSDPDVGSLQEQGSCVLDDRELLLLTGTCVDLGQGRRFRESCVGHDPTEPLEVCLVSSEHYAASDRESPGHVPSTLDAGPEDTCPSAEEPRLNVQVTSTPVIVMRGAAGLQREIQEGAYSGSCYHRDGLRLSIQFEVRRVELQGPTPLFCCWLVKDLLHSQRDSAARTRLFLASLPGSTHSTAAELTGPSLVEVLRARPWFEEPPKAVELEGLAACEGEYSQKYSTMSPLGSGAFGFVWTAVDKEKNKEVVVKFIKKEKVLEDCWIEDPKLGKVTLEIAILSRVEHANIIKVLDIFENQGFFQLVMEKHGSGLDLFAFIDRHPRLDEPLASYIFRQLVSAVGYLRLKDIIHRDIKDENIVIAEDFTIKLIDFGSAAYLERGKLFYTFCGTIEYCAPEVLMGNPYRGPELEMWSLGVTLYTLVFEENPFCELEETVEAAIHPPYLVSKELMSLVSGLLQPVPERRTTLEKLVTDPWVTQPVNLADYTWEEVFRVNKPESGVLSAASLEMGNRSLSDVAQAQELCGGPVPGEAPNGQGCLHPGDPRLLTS

Tests used:
Assay in all cases: log2 fold change, soluble protein after heating vs DMSO (PISA); higher = thermal stabilisation; K562 cells, 10 uM, 30 min; active = over 0.2 and 3.5 SD of the protein, either way, in both replicates (recomputed)
[1] = compound: CC[C@@H]1C(=O)N(C)c2cnc(Nc3ccc(C(=O)NC4CCN(C)CC4)cc3OC)nc2N1C1CCCC1
Method in brief: (§1)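 Thermal stability values are relative to control samples and come from duplicates. They are expressed as log2 fold changes. For measurement, K562 cells (2×10^6 cells/mL) received 10 μM compound for 30 min, and aliquots were heated for 3 min over 48°C-58°C, pooled, and extracted at 4°C in PBS with 0.5% NP-40. Soluble protein, the supernatant after 21,000xg for 90 min, was quantified by TMTpro 16plex LC-MS/MS with equalised channel sums.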

volasertib = compound: CC[C@@H]1C(=O)N(C)c2cnc(Nc3ccc(C(=O)N[C@H]4CC[C@H](N5CCN(CC6CC6)CC5)CC4)cc3OC)nc2N1C(C)C [volasertib]
Method in brief: as §1

[2] = compound: CC[C@H](C)N1C=C(C2=C(C=C(C=C21)C3=CN=C(C=C3)N4CCNCC4)C(=O)NCC5=C(C=C(NC5=O)C)C)C
Method in brief: as §1

epoxomicin = compound: CC[C@H](C)[C@@H](C(=O)N[C@@H]([C@@H](C)O)C(=O)N[C@@H](CC(C)C)C(=O)[C@]1(CO1)C)NC(=O)[C@H]([C@@H](C)CC)N(C)C(=O)C [epoxomicin]
Method in brief: as §1

[3] = compound: CCn1c(C(=O)N(C2CC2)C2CC2)cc2c3c(ncn3C)c(Nc3cc(C)n(C)n3)nc21
Method in brief: as §1

[4] = compound: CCn1cc(-c2ccnc3[nH]c(-c4cccc(CN(C)C)c4)cc23)c(-c2ccc(NC(=O)N(C)C)cc2)n1
Method in brief: as §1

[5] = compound: CN(C)CC(=O)Nc1ccc2[nH]c(=O)c3ccccc3c2c1
Method in brief: as §1

rosiglitazone = compound: CN(CCOC1=CC=C(C=C1)C[C@H]2C(=O)NC(=O)S2)C3=CC=CC=N3 (racemic) [rosiglitazone]
Method in brief: as §1

[6] = compound: CN1C2=C(C3=C1C(=O)N(N=C3)CC4=CC(=CC=C4)N)SC(=C2)S(=O)C
Method in brief: as §1

[7] = compound: CN1CCC(CNc2ccc3ncc(-c4cccc(OC(F)(F)F)c4)n3n2)CC1
Method in brief: as §1

Measured: log2 fold change

PDCL (UniProt Q13371)
inactive: [1] -0.117 | volasertib -0.123 | [2] 0.062 | epoxomicin 0.199 | [3] -0.046 | [4] -0.002 | [5] -0.035 | rosiglitazone -0.086 | [6] 0 | [7] -0.066

PABPC4 isoform 3 (UniProt Q13310)
inactive: [1] 0.092 | volasertib 0.029 | [2] 0.062 | epoxomicin -0.098 | [3] 0.061 | [4] 0.056 | [5] -0.007 | rosiglitazone -0.036 | [6] 0.104 | [7] -0.022

PARK7 (UniProt Q99497)
inactive: [1] 0.017 | volasertib 0.068 | [2] 0 | epoxomicin -0.01 | [3] -0.011 | [4] 0.035 | [5] 0.087 | rosiglitazone 0.02 | [6] -0.115 | [7] 0.082

PAXX (UniProt Q9BUH6)
inactive: [1] 0.023 | volasertib 0.05 | [2] -0.057 | epoxomicin -0.024 | [3] 0.003 | [4] -0.024 | [5] -0.024 | rosiglitazone 0.026 | [6] -0.068 | [7] -0.045

PBDC1 (UniProt Q9BVG4)
inactive: [1] -0.018 | volasertib -0.114 | [2] 0.061 | epoxomicin 0.03 | [3] 0.041 | [4] 0.022 | [5] 0.012 | rosiglitazone -0.002 | [6] -0.027 | [7] -0.108

PDIA3 (UniProt P30101)
inactive: [1] -0.04 | volasertib 0.052 | [2] 0.039 | epoxomicin -0.034 | [3] 0.056 | [4] 0.039 | [5] -0.03 | rosiglitazone -0.007 | [6] 0.045 | [7] 0.139

PDPR (UniProt Q8NCN5)
inactive: [1] 0.018 | volasertib -0.076 | [2] -0.004 | epoxomicin 0.015 | [3] -0.052 | [4] -0.083 | [5] 0.016 | rosiglitazone 0.009 | [6] -0.067 | [7] 0.017

PDXP (UniProt Q96GD0)
inactive: [1] 0.016 | volasertib 0.022 | [2] -0.065 | epoxomicin -0.04 | [3] -0.022 | [4] 0 | [5] -0.014 | rosiglitazone 0.006 | [6] -0.03 | [7] -0.011

PDF (UniProt Q9HBH1)
inactive: [1] -0.044 | volasertib -0.083 | [2] -0.004 | epoxomicin -0.032 | [3] -0.002 | [4] -0.023 | [5] 0.032 | rosiglitazone 0.06 | [6] -0.04 | [7] -0.192

PANK4 (UniProt Q9NVE7)
inactive: [1] 0.095 | volasertib -0.015 | [2] 0.031 | epoxomicin 0.058 | [3] -0.003 | [4] -0.106 | [5] -0.006 | rosiglitazone 0.206 | [6] -0.05 | [7] 0.038

PARVB (UniProt Q9HBI1)
inactive: [1] 0.071 | volasertib 0.056 | [2] 0.073 | epoxomicin 0.03 | [3] 0.068 | [4] -0.061 | [5] 0.019 | rosiglitazone 0.081 | [6] -0.023 | [7] -0.156

PEBP1 (UniProt P30086)
inactive: [1] -0.005 | volasertib 0.071 | [2] -0.031 | epoxomicin 0.007 | [3] 0.04 | [4] 0.005 | [5] -0.041 | rosiglitazone -0.008 | [6] -0.037 | [7] 0.009

PBXIP1 (UniProt Q96AQ6)
inactive: [1] 0.02 | volasertib -0.025 | [2] 0.015 | epoxomicin 0.022 | [3] -0.011 | [4] 0.021 | [5] -0.046 | rosiglitazone 0.021 | [6] -0.016 | [7] 0.012

PCBD2 (UniProt Q9H0N5)
inactive: [1] 0.065 | volasertib 0.07 | [2] -0.032 | epoxomicin -0.008 | [3] -0.028 | [4] -0.023 | [5] -0.054 | rosiglitazone 0.008 | [6] -0.063 | [7] -0.004

PET100 (UniProt P0DJ07)
inactive: [1] 0.057 | volasertib -0.067 | [2] 0.001 | epoxomicin -0.071 | [3] -0.03 | [4] 0.015 | [5] 0.004 | rosiglitazone 0.022 | [6] -0.087 | [7] 0.063

PCYT2 isoform 3 (UniProt Q99447)
inactive: [1] -0.004 | volasertib -0.025 | [2] -0.017 | epoxomicin 0.053 | [3] -0.028 | [4] -0.035 | [5] -0.008 | rosiglitazone 0.008 | [6] -0.068 | [7] 0.118

PEPD (UniProt P12955)
inactive: [1] 0.045 | volasertib -0.01 | [2] 0.023 | epoxomicin -0.004 | [3] 0.013 | [4] -0.044 | [5] 0.019 | rosiglitazone -0.054 | [6] -0.012 | [7] 0.017

PAPSS1 (UniProt O43252)
inactive: [1] 0.013 | volasertib 0.035 | [2] 0.014 | epoxomicin 0.027 | [3] -0.005 | [4] -0.04 | [5] -0.02 | rosiglitazone 0.015 | [6] -0.037 | [7] -0.057

PDXDC1 (UniProt Q6P996)
inactive: [1] 0.119 | volasertib -0.263 | [2] -0.13 | epoxomicin -0.286 | [3] -0.043 | [4] -0.22 | [5] -0.161 | rosiglitazone -0.227 | [6] 0.34 | [7] 0.061

PDIA3 (UniProt H7BZJ3)
inactive: [1] -0.006 | volasertib 0.018 | [2] 0.003 | epoxomicin 0 | [3] 0.046 | [4] -0.234 | [5] -0.102 | rosiglitazone -0.049 | [6] 0.129 | [7] 0.073

PANX1 (UniProt Q96RD7)
inactive: [1] 0.013 | volasertib -0.142 | [2] -0.035 | epoxomicin -0.04 | [3] 0.008 | [4] -0.052 | [5] -0.033 | rosiglitazone 0.006 | [6] 0.01 | [7] 0.177

Looked up one by one from the entries so far, 2 records:
PDCL (UniProt Q13371)
inactive: [1] -0.117 | volasertib -0.123 | [2] 0.062 | epoxomicin 0.199 | [3] -0.046 | [4] -0.002 | [5] -0.035 | rosiglitazone -0.086 | [6] 0 | [7] -0.066

PBXIP1 (UniProt Q96AQ6)
inactive: [1] 0.02 | volasertib -0.025 | [2] 0.015 | epoxomicin 0.022 | [3] -0.011 | [4] 0.021 | [5] -0.046 | rosiglitazone 0.021 | [6] -0.016 | [7] 0.012

Next records follow.

PARS2 (UniProt Q7L3T8)
inactive: [1] 0.057 | volasertib 0.104 | [2] 0 | epoxomicin -0.026 | [3] -0.019 | [4] -0.037 | [5] -0.041 | rosiglitazone -0.043 | [6] 0.015 | [7] 0.097

PCYOX1 (UniProt Q9UHG3)
inactive: [1] 0.05 | volasertib 0.025 | [2] -0.025 | epoxomicin 0.014 | [3] -0.017 | [4] -0.034 | [5] -0.008 | rosiglitazone 0.017 | [6] -0.038 | [7] 0.111

PAIP1 (UniProt Q9H074)
inactive: [1] 0.048 | volasertib -0.097 | [2] 0.046 | epoxomicin 0.012 | [3] 0.048 | [4] -0.04 | [5] -0.02 | rosiglitazone 0 | [6] -0.066 | [7] -0.046

PER3 isoform 2 (UniProt P56645)
inactive: [1] 0.018 | volasertib -0.012 | [2] -0.012 | epoxomicin -0.009 | [3] -0.022 | [4] -0.03 | [5] 0.067 | rosiglitazone 0.004 | [6] -0.038 | [7] 0.073

PEX14 (UniProt O75381)
inactive: [1] 0.003 | volasertib 0.004 | [2] -0.007 | epoxomicin 0.042 | [3] -0.02 | [4] -0.001 | [5] -0.008 | rosiglitazone 0.007 | [6] -0.017 | [7] 0.056

PAK1IP1 (UniProt Q9NWT1)
inactive: [1] 0.304 | volasertib 0.53 | [2] -0.039 | epoxomicin -0.37 | [3] 0.037 | [4] 0.31 | [5] -0.199 | rosiglitazone -0.193 | [6] 0.321 | [7] 0.455

PDLIM4 (UniProt P50479)
inactive: [1] -0.019 | volasertib -0.027 | [2] -0.007 | epoxomicin 0.038 | [3] -0.053 | [4] 0.007 | [5] -0.007 | rosiglitazone 0.022 | [6] -0.034 | [7] -0.026

PDAP1 (UniProt Q13442)
inactive: [1] -0.053 | volasertib 0.077 | [2] -0.061 | epoxomicin 0.042 | [3] 0.016 | [4] 0.032 | [5] -0.046 | rosiglitazone 0.003 | [6] -0.054 | [7] -0.009

PASK (UniProt Q96RG2)
inactive: [1] 0.035 | volasertib -0.111 | [2] -0.015 | epoxomicin 0.01 | [3] 0.017 | [4] 0 | [5] 0.017 | rosiglitazone 0.1 | [6] 0.068 | [7] -0.033
